Reference: article PMC6879528
Results are given in words; binding and its absence hold for the method and conditions named.

Assays:
[1] = biological target: Myeloid-derived growth factor (MYDGF), human, recombinant wild type without the signal peptide (human) (UniProt Q969H8); assay: crystal structure; MYDGF alone; trigonal form (P3(1)21, two molecules per ASU) and a distinct orthorhombic form; both purified
[2] = biological target: Myeloid-derived growth factor (MYDGF), human, recombinant wild type without the signal peptide (human) (UniProt Q969H8); assay: SEC; analytical SEC of MYDGF alone, 10 µg injected, 50 mM NaPO4, 200 mM L-arginine, pH 6.8; molecular weight from BioRad standards; both purified

binding [1]: no binding
binding [2]: no binding (tested: 10 µg injected)
B1: Myeloid-derived growth factor (MYDGF), human, recombinant wild type without the signal peptide (protein, UniProt Q969H8 32-173)
chain: VSEPTTVAFDVRPGGVVHSFSHNVGPGDKYTCMFTYASQGGTNEQWQMSLGTSEDHQHFTCTIWRPQGKSYLYFTQFKAEVRGAEIEYAMAYSKAAFERESDVPLKTEEFEVTKTAVAHRPGAFKAELSKLVIVAKASRTEL
